The text below walks through data of paper PMC7177637.

Sequences of proteins named here, by UniProt entry; tags and fusion partners are left off. A change or cut given only in a name is not applied to a line headed by its entry. A line that says so, or that is headed by a name, gives the form on record, which may keep a tag or linker.
PTPRG D1028A (substrate trapping form expressed in K562 cells) (P23470, form named): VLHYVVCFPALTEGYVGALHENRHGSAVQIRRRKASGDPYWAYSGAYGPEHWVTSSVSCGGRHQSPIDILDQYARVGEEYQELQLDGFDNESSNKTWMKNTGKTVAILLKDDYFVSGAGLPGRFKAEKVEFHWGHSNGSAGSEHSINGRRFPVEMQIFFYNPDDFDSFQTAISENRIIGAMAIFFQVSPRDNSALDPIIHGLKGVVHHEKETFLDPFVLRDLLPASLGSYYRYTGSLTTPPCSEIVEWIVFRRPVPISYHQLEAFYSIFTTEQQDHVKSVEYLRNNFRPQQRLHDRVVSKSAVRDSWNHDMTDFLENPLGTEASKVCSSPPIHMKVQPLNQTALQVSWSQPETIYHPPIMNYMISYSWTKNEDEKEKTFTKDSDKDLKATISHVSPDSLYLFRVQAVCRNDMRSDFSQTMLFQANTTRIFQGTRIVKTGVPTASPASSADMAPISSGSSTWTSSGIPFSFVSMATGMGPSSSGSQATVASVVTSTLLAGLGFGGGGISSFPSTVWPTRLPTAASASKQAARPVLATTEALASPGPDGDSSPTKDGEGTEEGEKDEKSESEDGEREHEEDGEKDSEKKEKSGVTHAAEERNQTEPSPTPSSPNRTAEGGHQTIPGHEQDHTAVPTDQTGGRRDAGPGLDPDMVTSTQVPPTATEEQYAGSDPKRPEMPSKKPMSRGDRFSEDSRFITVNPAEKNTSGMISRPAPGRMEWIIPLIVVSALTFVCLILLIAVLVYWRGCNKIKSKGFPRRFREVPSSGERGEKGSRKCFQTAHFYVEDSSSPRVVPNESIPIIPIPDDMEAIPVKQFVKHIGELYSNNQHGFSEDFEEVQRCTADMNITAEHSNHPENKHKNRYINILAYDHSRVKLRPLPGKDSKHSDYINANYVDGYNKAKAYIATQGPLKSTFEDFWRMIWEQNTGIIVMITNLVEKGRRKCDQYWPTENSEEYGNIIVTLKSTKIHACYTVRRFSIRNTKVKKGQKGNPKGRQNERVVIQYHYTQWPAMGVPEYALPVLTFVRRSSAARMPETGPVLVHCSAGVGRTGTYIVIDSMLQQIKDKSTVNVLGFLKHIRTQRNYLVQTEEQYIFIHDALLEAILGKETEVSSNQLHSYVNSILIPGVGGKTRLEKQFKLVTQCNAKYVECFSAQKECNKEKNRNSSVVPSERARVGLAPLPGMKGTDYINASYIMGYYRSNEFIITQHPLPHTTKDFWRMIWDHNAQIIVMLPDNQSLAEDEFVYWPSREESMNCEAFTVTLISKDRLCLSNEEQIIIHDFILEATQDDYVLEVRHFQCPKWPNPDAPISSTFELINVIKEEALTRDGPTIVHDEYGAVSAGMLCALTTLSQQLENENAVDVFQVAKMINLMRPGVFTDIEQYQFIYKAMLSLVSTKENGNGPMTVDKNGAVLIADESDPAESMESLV
UniProt P35222: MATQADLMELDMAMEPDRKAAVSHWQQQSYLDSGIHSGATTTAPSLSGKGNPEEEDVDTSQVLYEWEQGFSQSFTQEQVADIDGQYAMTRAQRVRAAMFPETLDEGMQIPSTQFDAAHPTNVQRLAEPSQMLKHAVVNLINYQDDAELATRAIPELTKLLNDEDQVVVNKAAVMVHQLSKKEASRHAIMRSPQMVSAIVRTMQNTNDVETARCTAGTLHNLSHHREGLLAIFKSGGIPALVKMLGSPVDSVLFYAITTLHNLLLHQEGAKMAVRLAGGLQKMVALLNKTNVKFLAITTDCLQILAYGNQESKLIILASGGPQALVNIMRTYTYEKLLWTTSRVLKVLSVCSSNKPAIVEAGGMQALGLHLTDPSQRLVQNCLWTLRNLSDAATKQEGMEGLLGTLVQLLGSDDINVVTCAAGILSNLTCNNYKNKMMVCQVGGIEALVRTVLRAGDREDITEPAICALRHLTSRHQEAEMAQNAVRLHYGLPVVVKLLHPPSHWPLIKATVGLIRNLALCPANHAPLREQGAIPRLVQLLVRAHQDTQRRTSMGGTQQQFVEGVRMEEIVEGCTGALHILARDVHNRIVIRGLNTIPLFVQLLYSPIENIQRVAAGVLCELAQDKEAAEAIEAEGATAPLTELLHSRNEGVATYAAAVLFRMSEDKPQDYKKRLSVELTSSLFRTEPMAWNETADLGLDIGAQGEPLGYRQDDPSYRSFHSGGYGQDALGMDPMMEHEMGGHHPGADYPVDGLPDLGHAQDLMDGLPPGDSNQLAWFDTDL
UniProt O15169: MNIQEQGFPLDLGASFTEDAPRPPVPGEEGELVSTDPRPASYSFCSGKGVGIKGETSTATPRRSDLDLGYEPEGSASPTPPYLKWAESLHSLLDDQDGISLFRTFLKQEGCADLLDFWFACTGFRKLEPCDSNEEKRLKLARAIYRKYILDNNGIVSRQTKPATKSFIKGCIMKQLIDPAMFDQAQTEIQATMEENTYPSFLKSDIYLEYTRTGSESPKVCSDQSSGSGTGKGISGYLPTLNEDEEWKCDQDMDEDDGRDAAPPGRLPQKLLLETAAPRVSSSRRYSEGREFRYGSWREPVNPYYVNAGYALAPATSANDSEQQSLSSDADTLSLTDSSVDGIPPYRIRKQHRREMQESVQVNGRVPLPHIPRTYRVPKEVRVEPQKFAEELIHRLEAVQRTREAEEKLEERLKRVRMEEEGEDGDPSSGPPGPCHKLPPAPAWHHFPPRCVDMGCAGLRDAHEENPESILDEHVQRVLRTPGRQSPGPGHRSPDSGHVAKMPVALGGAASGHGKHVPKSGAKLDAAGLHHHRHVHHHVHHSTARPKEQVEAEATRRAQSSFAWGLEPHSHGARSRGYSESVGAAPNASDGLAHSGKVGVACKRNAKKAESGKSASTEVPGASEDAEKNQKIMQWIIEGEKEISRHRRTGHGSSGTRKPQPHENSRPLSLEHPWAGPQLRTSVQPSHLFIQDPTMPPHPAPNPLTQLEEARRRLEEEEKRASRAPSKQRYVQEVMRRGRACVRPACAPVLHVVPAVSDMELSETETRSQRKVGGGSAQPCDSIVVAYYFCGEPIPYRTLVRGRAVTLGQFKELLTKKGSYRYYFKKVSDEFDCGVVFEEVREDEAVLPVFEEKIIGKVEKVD

These are yes or no findings as the source states them, for the method shown. Binding seen in cells or lysates may run through a third protein. Some binding calls cover weakened binding; strength is not graded here.

Experiment [1] deals with PTPRG D1028A (substrate trapping form expressed in K562 cells) (human) (UniProt P23470). Kind of experiment: co-IP; K562 cells expressing PTPRG D1028A; antibody on Protein G-Sepharose, 500 µg lysate, 3 h at 4 °C; rabbit IgG as negative control; Western blot. For orientation: In western blotting, separated proteins are transferred to a membrane and probed.
Experiment [2] deals with β-catenin (CTNNB1) (human (endogenous in K562 and U937)) (UniProt P35222). Kind of experiment: co-IP; PTPRG-positive K562 cells (K562 γ1); immunoprecipitation with anti-β-catenin on Protein G-Sepharose, Western blot with anti-Axin1.
Experiment [3] shares this target. Kind of experiment: co-IP; K562 cells without PTPRG; immunoprecipitation with anti-β-catenin on Protein G-Sepharose, Western blot with anti-Axin1.

Consider “β-catenin (CTNNB1) (from UniProt P35222 1-781)”, for which the binding result in experiment [1] was “binds”.

Regarding Axin1 (from UniProt O15169 1-862), the binding result in experiment [2] was “binds”; in experiment [3] it was “no binding (condition: K562 cells without PTPRG)”.
